Laboratory results reported in article PMC5500279, “High-throughput electrophysiological assays for voltage gated ion channels using SyncroPatch 768PE” (PLoS ONE, 2017).
“And” between values parts separate entries of the source, which are not always exact repeats. Identical values can stand only once.

The chains behind the UniProt entries cited, without tags or fusion partners.
UniProt P15384, whole entry: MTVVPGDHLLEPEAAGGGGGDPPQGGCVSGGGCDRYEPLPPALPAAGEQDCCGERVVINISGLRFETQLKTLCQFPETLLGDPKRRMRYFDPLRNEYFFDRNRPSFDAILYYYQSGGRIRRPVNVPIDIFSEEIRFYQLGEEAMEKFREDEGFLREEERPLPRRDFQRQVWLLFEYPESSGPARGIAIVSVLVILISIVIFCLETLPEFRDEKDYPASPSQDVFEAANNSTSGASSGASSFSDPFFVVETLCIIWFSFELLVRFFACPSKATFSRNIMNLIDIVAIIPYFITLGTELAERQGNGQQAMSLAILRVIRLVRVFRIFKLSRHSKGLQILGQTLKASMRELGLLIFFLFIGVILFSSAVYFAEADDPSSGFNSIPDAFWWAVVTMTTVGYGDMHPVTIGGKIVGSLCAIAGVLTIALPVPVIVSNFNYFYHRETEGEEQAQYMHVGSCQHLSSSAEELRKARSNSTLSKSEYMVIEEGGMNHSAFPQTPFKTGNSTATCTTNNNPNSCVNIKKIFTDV

Target: Kv1.3 (Rattus norvegicus, UniProt P15384)

CC[C@H](C)[C@@H]1NC(=O)[C@@H](NC(=O)[C@H](CO)NC(=O)[C@@H](N)CCCNC(=N)N)CSSC[C@@H](C(=O)O)NC(=O)[C@H]([C@@H](C)O)NC(=O)CNC(=O)[C@@H]2CSSC[C@@H]3NC(=O)[C@H](CCC(N)=O)NC(=O)[C@H](Cc4ccccc4)NC(=O)[C@H](C)NC(=O)[C@H]([C@@H](C)O)NC(=O)[C@H](CSSC[C@H](NC(=O)[C@H](Cc4ccccc4)NC(=O)[C@H](CO)NC(=O)[C@H](CC(C)C)NC(=O)[C@H](CCCNC(=N)N)NC(=O)[C@H](Cc4ccc(O)cc4)NC(=O)[C@H](CCCCN)NC(=O)[C@H](CCSC)NC(=O)[C@H](CO)NC(=O)[C@H](Cc4cnc[nH]4)NC(=O)[C@H](CCCCN)NC3=O)C(=O)N[C@@H](CCCNC(=N)N)C(=O)N[C@@H](CCCCN)C(=O)N[C@@H]([C@@H](C)O)C(=O)N2)NC(=O)[C@H](CCCNC(=N)N)NC(=O)[C@H](CO)NC(=O)[C@H](CCCCN)NC(=O)[C@@H]2CCCN2C(=O)[C@H]([C@@H](C)CC)NC(=O)[C@H]([C@@H](C)O)NC(=O)[C@H](CC(=O)O)NC1=O [ShK]
ShK sensitive current in Kcna3-/- T cells: no Shk sensitive current was detected | WT T cell K+ current blocked: 89% | IC50 (read-out: IC50 Kv1.3 inhibition): 0.011 nM and 0.0111 nM
